Laboratory results reported in paper PMC7069958.
Results are given in words; binding and its absence hold for the method and conditions named. Binding seen in cells or lysates may run through a third protein. Some results given as binding are weak or reduced against the parent protein; the word gives no strength.

The chains behind the UniProt entries cited, without tags or fusion partners.
UniProt P83949: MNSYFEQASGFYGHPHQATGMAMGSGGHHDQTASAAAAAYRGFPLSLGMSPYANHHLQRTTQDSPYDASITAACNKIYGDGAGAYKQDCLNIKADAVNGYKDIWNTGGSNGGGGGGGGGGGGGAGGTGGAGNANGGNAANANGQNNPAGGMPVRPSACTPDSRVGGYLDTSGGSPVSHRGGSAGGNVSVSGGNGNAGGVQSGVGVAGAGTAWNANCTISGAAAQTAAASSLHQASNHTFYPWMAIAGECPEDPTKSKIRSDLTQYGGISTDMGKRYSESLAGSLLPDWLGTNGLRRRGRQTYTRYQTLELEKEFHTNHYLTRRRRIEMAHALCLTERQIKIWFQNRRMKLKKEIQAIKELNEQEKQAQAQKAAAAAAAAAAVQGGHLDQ

Target: GFP-Ubx expressed from the endogenous Ubx locus (Drosophila (endogenous in embryos)) (UniProt P83949)
Assay: co-IP; embryos (w1118 control or endogenous GFP-Ubx) fixed with 3.2% formaldehyde; nuclear lysate sonicated, Benzonase treated, in NP40 buffer (20 mM Tris pH 7.5, 150 mM NaCl, 2 mM EDTA, 1% NP40), overnight with GFP-Trap beads; immunoblot; endogenous levels of all proteins

| binding | Binder |
| --- | --- |
| binds | Motif 1 binding protein (M1BP), endogenous (protein, UniProt Q9VHM3 1-418) MSKSALKHLKSTCRVCAKYASNKRSPKLFERSNTKMIDNIEALTGLRLENYGCLPDQICECCSMELASAVKLRERCIAAQRELLLGLTEEQRQGISAFYRAAVMGEDIVQTVKTPDDDEVYATYQEIVLEEPKEEIDDTKVEYDNTYYEVAEGHAGEDDAASLIEEADYDSIMAEDEEQQQTLELDEDTELIVGDVNDAYVYDSDDEVAVLDNVLDDEYEHENIVVKKCSLPPKPKVRSDDARRRGTGGVYICEQCGNHIKGRMAFELHCRRHRGDKQFGCELCQSRFCTTSELKRHMRKHTGERPFACKYCGRCFTDYTTRVKHERTHTNERPYVCGTCGKAFTTGYILKNHMLIHSGERAYRCELCDKSFMLPTHLSTHFRSGVHKRHLEKAEMKQVLEQEQKRELKEEEEDSLHI |
| no binding | Polycomb (Pc), endogenous (protein, UniProt P26017 1-390) MTGRGKGSKGKLGRDNATDDPVDLVYAAEKIIQKRVKKGVVEYRVKWKGWNQRYNTWEPEVNILDRRLIDIYEQTNKSSGTPSKRGIKKKEKEPDPEPESEEDEYTFTENDVDTHQATTSSATHDKESKKEKKHHHHHHHHHHIKSERNSGRRSESPLTHHHHHHHHESKRQRIDHSSSSNSSFTHNSFVPEPDSNSSSSEDQPLIGTKRKAEVLKESGKIGVTIKTSPDGPTIKPQPTQQVTPSQQQPFQDQQQAEKIASEAATQLKSEQQATPLATEAINTTPAESGAEEEEVANEEGNQQAPQVPSENNNIPKPCNNLAINQKQPLTPLSPRALPPRFWLPAKCNISNRVVITDVTVNLETVTIRECKTERGFFRERDMKGDSSPVA |
| binds | Tinman (Tin), endogenous (protein, UniProt P22711 1-416) MLQHHQQQAQSGGYYDHYTQSPSPGSLTNADALNTTPFSVKDILNMVNQTEAYEGSYGHIDGAATASALFAAGEYQNPHQYLNHQQHQQSELPIPQQQLHHQHLDDGATTSSSLSPLLPPPPHQLYGGYQDYGMPAHMFQHHHGHPHQSFQHSASAYNMSASQFYAGASATAYQTPATYNYNYAGSGEVYGGATPSAVGIKSEYIPTPYVTPSPTLDLNSSAEVDSLQAPTQKLCVNPLSQRLMETASNSSSLRSIYGSDEGAKKKDNSQVTSSRSELRKNSISGNSNPGSNSGSTKPRMKRKPRVLFSQAQVLELECRFRLKKYLTGAEREIIAQKLNLSATQVKIWFQNRRYKSKRGDIDCEGIAKHLKLKSEPLDSPTSLPPPIPNHVMWPPTMQQSQQQQQHHAQQQQMQHM |
